Measurements as given in PubChem BioAssay AID504444 (National Center for Advancing Translational Sciences (NCATS), 2011).
Out of some 360,000 compounds screened, about 7,500 (2.1%) were called active. The shares of active, inactive and inconclusive entries below differ from those in the screen. Calls follow the shape of the dose curve; as a rule, active = well fitted inhibition curve with a large enough effect; inconclusive = small, poorly fitted or top-dose-only effect, or effect the other way; inactive = flat fitted curve, though single readings scatter. Potencies of inconclusive entries are doubtful fits and often do not repeat.
% is scaled to controls: 0 for no effect and ±100 for the full control effect; potency is read from the fitted curve at half-maximal effect.

Assay: Nrf2 qHTS screen for inhibitors; also: nearly all actives have a fitted effect of over 60% in size
Details: A549 ARE-Fluc reporter, luciferase luminescence, 18-24 h; activity change, negative = inhibition: at 46 µM (top of the series)
Method in brief: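 A549 ARE_Fluc cells (5000/well, 5% FBS OPTI-MEM) pre-incubated 2 h, then treated with compounds 18-24 h at 37C/5% CO2 in concentration-response. CellTiter-Fluor viability read first; BugLite luciferase luminescence after 15 min at room temperature gives Nrf2 activity.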
For `Cc1cc(-c2csc(N)n2)c(C)n1C`, the “activity change, negative = inhibition” value was inactive: 5.24%.
In the case of `CCCn1c(=N)c(C(=O)NC2CCCCC2)cc2c(=O)n3cc(C)ccc3nc21`, the “activity change, negative = inhibition” value is reported as inactive: 2.63%.
For `Nc1nc(CSc2n[nH]c(-c3ccccc3)n2)nc(Nc2ccccc2)n1`, the Potency was inconclusive: 29.1 µM [falling, single point].
With `O=C(O)CCN1CCOCC1` the Potency was inconclusive: 13 µM [activator, partial curve, poor fit].
In the case of `O=S(=O)(Nc1nc2ccccc2nc1Cl)c1ccccc1`, the Potency is reported as inconclusive: 1.16 µM [falling, full curve, poor fit].
For `O=C(Nc1ccccc1[N+](=O)[O-])C1COc2ccccc2O1` (configuration not stated), the Potency was inconclusive: 14.6 µM [activator, partial curve].
For `Cc1cc(=O)oc2ccc(OC(=O)c3cccc(S(=O)(=O)N4CCOCC4)c3)cc12`, the Potency was inconclusive: 11.6 µM [activator, partial curve, poor fit].
In the case of `CN(Cc1ccc(-n2cccn2)cc1)C(=O)c1cnn2c1NC(c1ccco1)CC2C(F)(F)F` (configuration not stated), the Potency is reported as inconclusive: 25.9 µM [falling, single point].
In the case of `COc1ccccc1OCc1nc2ccccc2s1`, the Potency is reported as inconclusive: 1.46 µM [activator, partial curve].
With `COc1cccc(CNC(=O)Cn2cccc2C(=O)c2ccccc2)c1` the Potency was inconclusive: 16.4 µM [activator, partial curve, poor fit].
In the case of `Cc1[nH]nc(Nc2ccc(Br)cc2)c1[N+](=O)[O-]`, the Potency is reported as inconclusive: 18.4 µM [activator, single point].
For `Cc1cccc(C)c1NC(=O)NC1(C(=O)NCC2CCCO2)CCCCC1` (configuration not stated), the Potency was inconclusive: 29.1 µM [activator, single point].
For `CCOC(=O)C1Nc2ccc(C(=O)O)cc2C2C=CCC12` (configuration not stated), the “activity change, negative = inhibition” value was inactive: 0.656%.
With `CCc1ccc2oc(-c3ccc(NC(C)=O)cc3)nc2c1` the Potency was inconclusive: 8.2 µM [activator, partial curve, poor fit].
For `COc1ccc(NC(=O)c2cc(C)nc3ccccc23)cc1S(=O)(=O)N1CCOCC1`, the Potency was inconclusive: 7.31 µM [falling, partial curve, poor fit].
For `Cc1c(NS(=O)(=O)c2ccc3c(c2)OCCO3)cccc1-c1nc2cccnc2s1`, the Potency was active: 20.6 µM.
For `CCC(=O)NNC(=O)Cc1c(C)n(C(=O)c2ccc(Cl)cc2)c2ccc(OC)cc12`, the “activity change, negative = inhibition” value was inactive: -17.2%.
In the case of `CC(=O)OCC(NC(=O)C(C)NC(=O)OC(C)(C)C)C1OC(n2cc(F)c(=O)[nH]c2=O)C(OC(C)=O)C1OC(C)=O` (configuration not stated), the “activity change, negative = inhibition” value is reported as inactive: -3.21%.
In the case of `COc1cccc(-c2nc(CS(=O)(=O)CC(=O)NCCc3cc(OC)ccc3OC)c(C)o2)c1`, the Potency is reported as inconclusive: 25.9 µM [falling, partial curve, poor fit].
In the case of `O=C(CCN1Cc2ccccc2C1)c1ccc2c(c1)OCCO2`, the “activity change, negative = inhibition” value is reported as inactive: 5.99%.
In the case of `Nn1c(CSc2ccccn2)nc2ccccc2c1=O`, the Potency is reported as inconclusive: 3.26 µM [activator, full curve, poor fit].
For `O=C(CSc1nc2ccsc2c(=O)n1-c1ccc(Br)cc1)NCc1ccc(Cl)cc1`, the Potency was inconclusive: 11.6 µM [falling, partial curve, poor fit].
For `Cc1c(NC(=O)COC(=O)c2c3c(nc4ccccc24)CCCC3)c(=O)n(-c2ccccc2)n1C`, the “activity change, negative = inhibition” value was inactive: 4.18%.
In the case of `COc1ccc(S(=O)(=O)N2CCCCCC2)cc1C(=O)Nc1ccc(C(=O)N(C)C)cc1`, the “activity change, negative = inhibition” value is reported as inactive: -28.6%.
For `CCn1ncc(Br)c1C(=O)Nc1cccc(C(C)=O)c1`, the activity change, negative = inhibition was inconclusive: 52.4% [activator].
In the case of `CCOc1ccc(CCNc2nc3ccccc3n3cnnc23)cc1OCC`, the Potency is reported as inconclusive: 29.1 µM [falling, single point].
With `CC1Cc2ccccc2N1C(=O)Cn1c(=O)oc2cc(S(=O)(=O)NC3CCCC3)ccc21` (configuration not stated) the Potency was inconclusive: 25.9 µM [falling, single point].
In the case of `Cc1ccc(N(CN2C(=O)C3CC=CCC3C2=O)C(=O)c2ccco2)cc1Cl` (configuration not stated), the “activity change, negative = inhibition” value is reported as inactive: 3.88%.
With `CC(=O)Nc1sc2c(c1-c1nc3ccccc3s1)CCN(C(C)C)C2` the Potency was active: 6.51 µM.
For `N#CCCN1CCN(C2=NC(=O)/C(=C\c3cccs3)S2)CC1`, the “activity change, negative = inhibition” value was inactive: 4.27%.
In the case of `CCOC(=O)Cc1csc(NC(=O)C(NC(=O)C2CCC(C)CC2)C(C)C)n1` (configuration not stated), the Potency is reported as inconclusive: 6.51 µM [falling, partial curve, poor fit].
For `CNc1nc(-c2ccccc2)c(-c2ccccc2)s1`, the Potency was inconclusive: 8.2 µM [activator, partial curve, poor fit].
In the case of `CCc1ccc(C(=O)c2cn(CC(=O)Nc3ccc(F)cc3)c3ccc(F)cc3c2=O)cc1`, the Potency is reported as inconclusive: 25.9 µM [falling, single point].
For `CCN(CC(=O)Nc1c(F)cccc1F)C(=O)CCC(=O)c1ccc(F)cc1`, the “activity change, negative = inhibition” value was inactive: 10.5%.
With `CCCc1nnc(NC(=O)CCC(=O)O)s1` the Potency was inconclusive: 7.31 µM [activator, partial curve, poor fit].
For `CCN1C(=O)/C(=C2/C=Cc3cc(C)ccc3N2CC)N(C)C1=S`, the Potency was inconclusive: 20.6 µM [falling, single point].
For `Cc1ccc(C(=O)Nc2ccccc2N2CCOCC2)cc1S(=O)(=O)N1CCOCC1`, the Potency was inconclusive: 14.6 µM [falling, partial curve, poor fit].
With `O=C(CSc1nnc(-c2cccs2)o1)c1cccs1` the Potency was inconclusive: 25.9 µM [activator, partial curve].
For `Cn1c(N2CCOCC2)nc2c1c(=O)n(Cc1ccc(Cl)c(Cl)c1)c(=O)n2C`, the Potency was inconclusive: 20.6 µM [falling, partial curve, poor fit].
For `CCCCNC(=O)Cn1c(SCc2cccc(F)c2)nc2ccncc21`, the “activity change, negative = inhibition” value was inactive: 6.39%.
For `COc1cc(N=Nc2cccc(S(N)(=O)=O)c2)c2ccccc2c1N`, the Potency was inconclusive: 6.51 µM [activator, single point].
In the case of `Cc1nc2ccc(-c3nc4ccc(N)cc4[nH]3)cc2[nH]1`, the Potency is reported as inconclusive: 11.6 µM [falling, partial curve, poor fit].
In the case of `CC(=O)c1c(N2CCCCC2)nc(=S)n(Cc2ccccc2)c1C`, the “activity change, negative = inhibition” value is reported as inactive: -10.8%.
With `c1csc(C2=Nn3c(nnc3-c3ccncc3)SC2)c1` the Potency was active: 16.4 µM.
In the case of `Cc1ccc(/C=C/C(=O)Nc2nccs2)o1`, the Potency is reported as inconclusive: 5.8 µM [activator, partial curve].
For `N#Cc1cc2ccccc2nc1SCC(=O)Nc1ccc(S(=O)(=O)N2CCCC2)cc1`, the Potency was inconclusive: 13 µM [falling, partial curve].
With `Cc1cccc(CN2C(=O)c3ccccc3S(=O)(=O)c3ccc(C(=O)OCC4CCCO4)cc32)c1` (configuration not stated) the “activity change, negative = inhibition” value was inactive: 0%.
For `CN(CC(=O)Nc1ccc(Cl)c(C(F)(F)F)c1)C(=O)c1ccc2c(c1)NC(=O)CS2`, the Potency was active: 20.6 µM.
In the case of `O=C(c1ccccc1)c1ccc(Cn2cc(-c3ccccc3)nn2)cc1`, the Potency is reported as inconclusive: 1.84 µM [activator, partial curve, poor fit].
In the case of `C=CCOC(=O)C1=C[C@H](c2coc3ccccc3c2=O)C[C@H](OCc2ccc(CO)cc2)O1`, the “activity change, negative = inhibition” value is reported as inactive: 3.86%.
With `CCC(C(=O)Nc1ccccc1Cl)n1nc(C)c2c(C)n(-c3ccccc3)nc2c1=O` (configuration not stated) the Potency was inconclusive: 10.3 µM [falling, partial curve, poor fit].
In the case of `NC(=O)CC(NC(=O)c1ccc(Br)cc1)c1ccc(N2CCN(c3ccc(F)cc3)CC2)c([N+](=O)[O-])c1` (configuration not stated), the Potency is reported as inconclusive: 29.1 µM [falling, single point].
With `Cc1ccc2c(c1)c(=O)c1ccccc1n2CCCC(=O)Nc1ccc(C)c(C)c1` the Potency was inconclusive: 29.1 µM [falling, single point].
In the case of `CC(C)OC(=O)c1ccc(NC(=O)CSc2nc(-c3cccs3)cc(C(F)(F)F)n2)cc1`, the Potency is reported as inconclusive: 25.9 µM [falling, partial curve, poor fit].
With `CC(C)CC(=O)n1nc(-c2ccco2)nc1NCc1ccc(Cl)cc1` the Potency was inconclusive: 23.1 µM [activator, partial curve, poor fit].
In the case of `COc1cc(-c2nn3c(COc4ccccc4)nnc3s2)cc(OC)c1OC`, the Potency is reported as inconclusive: 16.4 µM [falling, partial curve].
With `Cc1ccc(-n2ncc(N(C)C)c(Cl)c2=O)cc1` the Potency was inconclusive: 1.03 µM [activator, partial curve, poor fit].
In the case of `Cc1ccc2c(c1)-c1c(cnc3cc(-c4ccc(Cl)cc4)nn13)CO2`, the “activity change, negative = inhibition” value is reported as inactive: 3.03%.
In the case of `CCN(C(=O)CSc1nc(C)c(C)c(C)n1)C1CCS(=O)(=O)C1` (configuration not stated), the “activity change, negative = inhibition” value is reported as inactive: -11.1%.
With `Cc1ccc2onc(CNC(=O)N3CCN(c4cc(Cl)ccc4C)CC3)c2c1` the Potency was inconclusive: 29.1 µM [falling, single point].
With `Cc1nnc(SCC(=O)c2c(N)n(C)c(=O)n(C)c2=O)n1Cc1ccccc1` the Potency was inconclusive: 0.326 µM [falling, full curve, poor fit].
With `CC1CCN(C(=O)Nc2ccc3nc(-c4ccco4)c(-c4ccco4)nc3c2)CC1` the Potency was inconclusive: 16.4 µM [activator, single point].
For `COc1ccc(/C=N/NC(=O)CCSc2nc3ccccc3s2)cc1OC`, the Potency was inconclusive: 23.1 µM [falling, single point].
With `Cn1c(=O)c2c(SCC(=O)Nc3ccc4c(c3)OCCO4)nc(CC(C)(C)C)nc2n(C)c1=O` the Potency was active: 7.31 µM.
With `CC1CCCC(NC(=O)C2CCN(S(=O)(=O)c3cccc4nonc34)CC2)C1C` (configuration not stated) the “activity change, negative = inhibition” value was inactive: -5.31%.
In the case of `Cc1ccc(CCNC(=O)c2sc3nc4n(c(=O)c3c2C)CCCC4)cc1`, the “activity change, negative = inhibition” value is reported as inactive: -2.18%.
In the case of `COc1ccc(N2CCN(c3ccc(N4C(=O)COCC4=O)cc3[N+](=O)[O-])CC2)cc1`, the Potency is reported as inconclusive: 20.6 µM [falling, partial curve].
